Results are given in words; binding and its absence hold for the method and conditions named. Some binding calls cover weakened binding; strength is not graded here.
Experiments:
[1] = target: human coagulation factor XI (human) (UniProt P03951); assay: SPR, antibody captured, FXI flowed
[2] = target: human coagulation factor XI (human) (UniProt P03951); assay: SPR (Biacore T200), antibody captured on anti-human IgG CM5 chip, FXI flowed, 1:1 fit
[3] = target: human coagulation factor XI (human) (UniProt P03951); assay: pull-down with biotinylated antibody from human plasma, Western blot for FXI
[4] = target: wild-type FXI with 6xHis tag (human) (UniProt P03951); assay: SPR, His-tagged FXI immobilized, antibodies 5 ug/ml injected successively
[5] = target: human coagulation factor XI (human) (UniProt P03951); assay: SPR (Biacore T200), antibody captured on anti-human IgG CM5 chip, FXI flowed
[6] = target: wild-type FXI with 6xHis tag (human) (UniProt P03951); assay: SPR (Biacore T200), FXI on the chip, antibodies 5 µg/mL injected one after the other at 30 µl/minute
[7] = target: human coagulation factor XI (human) (UniProt P03951); assay: pull-down of biotinylated antibody from human plasma with streptavidin beads, Western blot with mouse anti-human FXI IgG
[8] = target: human coagulation factor XI (human) (UniProt P03951); assay: SPR, antibody captured, wild type FXI flowed at one concentration
[9] = target: wild-type FXI with 6xHis tag (human) (UniProt P03951); assay: SPR (Biacore T200), FXI on the chip, h-42A5 5 µg/mL injected after h-19F6 and washing

Amino acid sequences for entries named in this document (tags omitted). A change or cut given only in a name is not applied to a line headed by its entry.
UniProt P03951: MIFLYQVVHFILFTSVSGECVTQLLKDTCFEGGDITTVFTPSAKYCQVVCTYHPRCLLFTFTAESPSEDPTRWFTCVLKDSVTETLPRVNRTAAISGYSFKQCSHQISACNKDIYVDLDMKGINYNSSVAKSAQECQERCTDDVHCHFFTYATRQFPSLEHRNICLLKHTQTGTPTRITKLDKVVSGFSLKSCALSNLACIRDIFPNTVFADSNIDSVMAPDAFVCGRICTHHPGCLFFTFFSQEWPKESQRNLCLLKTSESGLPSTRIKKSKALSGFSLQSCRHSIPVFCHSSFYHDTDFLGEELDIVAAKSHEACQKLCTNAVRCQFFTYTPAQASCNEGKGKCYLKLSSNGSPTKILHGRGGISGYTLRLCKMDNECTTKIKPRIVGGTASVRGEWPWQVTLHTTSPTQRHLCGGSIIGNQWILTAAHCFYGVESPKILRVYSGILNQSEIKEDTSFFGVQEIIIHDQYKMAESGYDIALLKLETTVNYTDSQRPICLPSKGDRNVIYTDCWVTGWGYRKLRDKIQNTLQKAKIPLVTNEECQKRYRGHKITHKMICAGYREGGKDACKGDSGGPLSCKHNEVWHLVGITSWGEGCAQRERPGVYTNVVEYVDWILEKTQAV

binding [1]	binding [2]	binding [3]	binding [4]	binding [5]	binding [6]	binding [7]	binding [8]	binding [9]	Binder
binds	binds	binds	binds	binds	binds	binds	binds		h-19F6 (antibody, V domains shown) VH: EVQLVESGGGLVQPGRSLRLSCTASGFTFSKYAMSWVRQAPGKGLEWVSAINYDGSTTYYADSVKGRFTLSRDNSKNTLYLQMNSLRAEDTAVYYCARHPFNNFGIWFAYWGQGTLVTVS VL: QFQLTQPSSVSASVGDRVTITCERSSGDIGDSYVSWYQQKPGQPPKNVIYADDQRPSGVPDRFSGSIDGSGNSASLTISSLQAEDAADYFCQSYDSNIDFNPVFGGGTKLEVK
binds	binds	binds	binds	binds		binds	binds	binds	h-42A5 (antibody, V domains shown) VH: QVTLKESGPVLVKPTETLTLTCTVSGFSLTSYHLHWIRQPPGKALEWMGLMWRDGDTSYNSRLKSRLTISRDTSKSQVVLTMTNMDPVDTATYYCARGMTLATPFLYWGQGTLVTVSS VL: DVVLTQTPLSLSVTPGQPASISCRSSQSLESSDGNTYLEWYLQKPGQSPQLLIYGVSNRFSGVPDRFSGSGSGTDFTLKISRVEAEDLGVYYCFQATRDPFTFGQGTKLEIKR
binds	binds								h-34F8 (antibody, V domains shown) VH: QVQLQESGPGLVKPSETLSLTCTVSGFSLTTYHVHWVRQPPGKGLEWIGIMWRDGDTYYNSSLKSRVTISRDTSKNQVSLKLSSVTAADTAVYFCARGGTLTTPFTYWGQGTLVTVSS VL: DVVLTQTPLSLPVTPGEPASISCRSSQSLESRDGNTYLEWYLQKPGQSPQVLLYGVSNRLSGVPDRFSGSGSGTDFTLKISRVEAEDVGVYYCFQATHGPFTFGQGTKLEIKR

Reference: US20200024362A1
